Assay results taken from patent US20210147525A1 (University of California, published 2021).
Substitutions are numbered along the chain they refer to. No constants are given. Whether binding was seen depends on the method and setting. Binding calls can cover weak binding; strength is not graded here.

B1: 8-F6 (antibody, V domains shown)
VH: EVQLLESGGGLVQPGGSLRLSCAASGFTFSSYAMSWVRQAPGKGLEWVSVISGSGGNTYYADSVKGRFTISRDNSKNTLYLQMNSLRAEDTAVYYCAREVRHDSYYYYYYSGMDVWGQGTLVTVSS
VL: EIVMTQSPATLSVSPGERATLSCRASQSVYNNLAWYQQKPGQAPRLLIYDASTRATGIPARFSGSGSGTEFTLTISSLQSEDFAVYYCQQYSDYPFTFGQGTKVEIK
B2: 8-F11 (antibody, V domains shown)
VH: QVQLVQSGAEVKKPGSSVKVSCKASGGTFSNYAINWVRQAPGQGLEWMGRIIPTLGIANYAQKFQGRVTITADESTSTAYMELSSLRSEDTAVYYCARAAYFAGPAARYGYFDIWGQGTLVTVSS
VL: EIVLTQSPGTLSLSPGERATLSCRASQSVRSNYLAWYQQKPGQAPRLLIYDASSRATGIPDRFSGSGSGTDFTLTISRLEPEDFAVYYCQQYAYAPWTFGQGTKVEIK
B3: 8-H7 (antibody, V domains shown)
VH: EVQLLESGGGLVQPGGSLRLSCAASGFTFSNYAMSWVRQAPGKGLEWVSAIYGSGGRTYYADSVKGRFTISRDNSKNTLYLQMNSLRAEDTAVYYCARLRYGFYQFDYWGQGTLVTVSS
VL: DIQMTQSPSSLSASVGDRVTITCRASQSIRNYLNWYEQKPGKAPKLLIYAASSLQSGVPSRFSGSGSGTDFTLTISSLQPEDFATYYCQQSYSYPLTFGQGTKVEIK
B4: 9-B3 (antibody, V domains shown)
VH: QVQLVESGGGVVQPGRSLRLSCAASGFTFSDYGMHWVRQAPGKGLEWVAVISYDGSRKYYANSVKGRFTISRDNSKNTLYLQMNSLRAEDTAVYYCARGSYSDGFDVWGQGTLVTVSS
VL: B3 VL with V19M, R30S, E37Q, S93A, Y94P, L96Y
B5: 9-B10 (antibody, V domains shown)
VH: EVQLLESGGGLVQPGGSLRLSCAASGFTFSSYAMSWVRQAPGKGLEWVSGISESGGGTYYADSVKGRFTISRDNSKNTLYLQMNSLRAEDTAVYYCARLVPWQLAFDVWGQGTLVTVSS
VL: B1 VL with S92Y, D93Y, Y94W, F96I
B6: 9-C2 (antibody, V domains shown)
VH: B1 VH
VL: B1 VL
B7: 9-D8 (antibody, V domains shown)
VH: QVQLVQSGAEVKKPGSSVKVSCKASGGTFSSEAISWVRQAPGQGLEWMGRIIPISGRPNYAQKFQGRVTITADESTSTAYMELSSLRSEDTAVYYCAREASYYVAGYYRYYGFDVWGQGTLVTVSS
VL: B1 VL with Q27R, V29L, Y30S, S92N, D93A, Y94W, F96Y
B8: 9-E4 (antibody, V domains shown)
VH: B1 VH
VL: B1 VL
B9: 9-E5 (antibody, V domains shown)
VH: QVQLVESGGGLVKPGGSLRLSCAASGFTFSNAWMSWVRQAPGKGLEWVGRIKSKIEGGTTDYAPPVKGRFTISRDDSKNTLYLQMNSLKTEDTAVYYCARDPTWYVSGHYYGFDVWGQGTLVTVSS
VL: B3 VL with R30A, E37Q, S91Y, Y92F, Y94T, L96P
B10: 9-G1 (antibody, V domains shown)
VH: EVQLLESGGGLVQPGGSLRLSCAASGFTFGNYAMSWVRQAPGKGLEWVSTISAGGSRTYYADSVKGRFTISRDNSKNTLYLQMNSLRAEDTAVYYCARGWYPILYYAFDYWGQGTLVTVSS
VL: B3 VL with R30G, E37Q, A50S, S91T, S93T, Y94I
B11: 9-G3 (antibody, V domains shown)
VH: EVQLLESGGGLVQPGGSLRLSCAASGFTFSSYAMSWVRQAPGKGLEWVSTIYRSGGRTYYADSVKGRFTISRDNSKNTLYLQMNSLRAEDTAVYYCARGAYPLGSYYGFDPWGQGTLVTVSS
VL: B3 VL with R30A, N31T, E37Q, S93T, L96V
B12: 9-H9 (antibody, V domains shown)
VH: B10 VH with G30S, S52Y, A53G, G54S, S56V, S63G, Y101I, I103H, L104S, Y105F
VL: B3 VL with R30S, N31S, E37Q, A50G, Y92F, S93T, Y94A, L96V
B13: 2-C8 (antibody, V domains shown)
VH: EVQLLESGGGLVQPGGSLRLSCAASGFTFTNYAMSWVRQAPGKGLEWVSSISGSGISTYYADSVKGRFTISRDNSKNTLYLQMNSLRAEDTAVYYCARGPGPGYWYAFDVWGQGTLVTVSS
VL: B3 VL with S28T, R30S, N31R, E37Q, S93T, L96I
B14: 8-D9 (antibody, V domains shown)
VH: QVQLVQSGAEVKKPGSSVKVSCKASGGTFSDEAIHWVRQAPGQGLEWMGRIIPVLGIASYAQKFQGRVTITADESTSTAYMELSSLRSEDTAVYYCARGLSRRAFYFDYWGQGTLVTVSS
VL: B3 VL with S28T, R30G, E37Q, A50V, S93R, L96Y
B15: 10-A9 (antibody, V domains shown)
VH: B13 VH
VL: B3 VL with S28T, R30S, N31R, E37Q, A50S, S93T, L96I
B16: 10-B5 (antibody, V domains shown)
VH: EVQLLESGGGLVQPGGSLRLSCAASGFTFSSYAMSWVRQAPGKGLEWVSAIYGAGGKTYYADSVKGRFTISRDNSKNTLYLQMNSLRAEDTAVYYCARISHGWGFDVWGQGTLVTVSS
VL: B3 VL with S28D, R30S, E37Q, S93T
B17: 10-C1 (antibody, V domains shown)
VH: EVQLLESGGGLVQPGGSLRLSCAASGFTFSNYAMSWVRQAPGKGLEWVSVIYGSGTRTYYADSVKGRFTISRDNSKNTLYLQMNSLRAEDTAVYYCARVASSYHYAFDYWGQGTLVTVSS
VL: B3 VL with R30S, N31T, E37Q, P59S, S93T, Y94F
B18: 10-C3 (antibody, V domains shown)
VH: B17 VH with T56G, A100E, S101D, S102T, Y103S, H104Y, A106G, F107M
VL: B3 VL with S28T, R30G, N31I, E37Q, K45T, S93T
B19: 10-C9 (antibody, V domains shown)
VH: B3 VH with R100E, Y101A, Q105S, F106L, Y108I
VL: B3 VL with S28T, R30G, N31T, E37Q
B20: 10-E6 (antibody, V domains shown)
VH: B16 VH with A54S, K57D, I99T, S100E, H101Y, G102D, W103G, G104Y
VL: B3 VL with S28D, R30Y, E37Q, A50G, Y92D, S93G, Y94F, L96P
B21: 10-E7 (antibody, V domains shown)
VH: B3 VH with S30T, N31D, A50V, L99V, R100E, Y101D, G102S, F103H, Q105S, Y108V
VL: B3 VL with R30S, E37Q, S93T, Y94V, L96W
B22: 10-F12 (antibody, V domains shown)
VH: EVQLLESGGGLVQPGGSLRLSCAASGFTFSNYAMSWVRQAPGKGLEWVSAIKGSGGGTYYADSVKGRFTISRDNSKNTLYLQMNSLRAEDTAVYYCARGGYLWLDPWGQGTLVTVSS
VL: B1 VL with V29I, Y30S, N31S, S92Y, D93N, Y94W, F96L
B23: 11-B6 (antibody, V domains shown)
VH: EVQLLESGGGLVQPGGSLRLSCAASGFTFSRYAMSWVRQAPGKGLEWVSIISGTGGNTYYADSVKGRFTISRDNSKNTLYLQMNSLRAEDTAVYYCARIDTFAYYYSLYRAFDLWGQGTLVTVSS
VL: B1 VL with Y30G, N31G, S92N, Y94W, F96L
B24: 11-D8 (antibody, V domains shown)
VH: EVQLLESGGGLVQPGGSLRLSCAASGFTFSDYAMSWVRQAPGKGLEWVSSISEGGGSTYYADSVKGRFTISRDNSKNTLYLQMNSLRAEDTAVYYCARTKRYFAGGSYYWMDVWGQGTLVTVSS
VL: B3 VL with S28R, R30S, N31S, E37Q, T72A, L96I
B25: 11-D11 (antibody, V domains shown)
VH: EVQLLESGGGLVQPGGSLRLSCAASGFTFSTYAMSWVRQAPGKGLEWVSSISGSGGKTYYADSVKGRFTISRDNSKNTLYLQMNSLRAEDTAVYYCARDIYGITYDGYTYYDGMDVWGQGTLVTVSS
VL: B3 VL with R30Y, Y36H, E37Q, Y92D, Y94P, L96W
B26: 11-G5 (antibody, V domains shown)
VH: EVQLLESGGGLVQPGGSLRLSCAASGFTFSNYAMSWVRQAPGKGLEWVSTISGSGANTYYADSVKGRFTISRDNSKNTLYLQMNSLRAEDTAVYYCARHHDIAPSWIYYFDYWGQGTLVTVSS
VL: B2 VL with S26R, R30P, D51G, A93Y, Y94S, A95S, W97L

Each binder was assayed against human PLXDC1 protein, biotinylated (bait of the antibody library screen) (human) (assay: antibody library screen on biotinylated PLXDC1 with activating compound).

Row | Binder | binding
1 | B1 | binds
2 | B2 | binds
3 | B3 | binds
4 | B4 | binds
5 | B5 | binds
6 | B6 | binds
7 | B7 | binds
8 | B8 | binds
9 | B9 | binds
10 | B10 | binds
11 | B11 | binds
12 | B12 | binds
13 | B13 | binds
14 | B14 | binds
15 | B15 | binds
16 | B16 | binds
17 | B17 | binds
18 | B18 | binds
19 | B19 | binds
20 | B20 | binds
21 | B21 | binds
22 | B22 | binds
23 | B23 | binds
24 | B24 | binds
25 | B25 | binds
26 | B26 | binds
